Measured values published in patent US20210196738A1, “PHARMACEUTICAL COMPOSITION COMPRISING A COLLOIDAL DISPERSION AND A THERAPEUTIC AGENT AND METHODS AND USES THEREOF” (priority 2017, published 2021).
For at least one compound, name, drawing or mass did not settle the structure.

System: S. enterica Typhimurium LT2
Test: AgSol-antibiotic synergy screening assay
Format: cell-based, Salmonella enterica
Conditions: Salmonella; FIGS. 2A-2F
Description: Antibiotic stock solutions were serially diluted in 2-fold steps in pre-warmed (37° C.) nutrient broth (NB) to prepare an antibiotic concentration gradient above and below the minimal inhibitory concentration (MIC) of antibiotic (Table 4). 50 μl of prepared dilutions were aliquoted into a 96-well round bottom plate (Nunc, Thermo Fisher) for the screening assay.
Silver formulation (AgSol1000 (particles with 19 Ag per silica particle), AgSol300 (particles with 6 Ag per silica particle, AgNO3), aluminum coated silica beads (159/500 (silica particles with aluminium silicate coating)) and uncoated silica beads (15/500) were diluted in pre-warmed (37° C.) NB. Bindzil®15/500 is an unmodified silica sol, whereas Bindzil®159/500 is a aluminosilicate modified silica sol. Bindzil® is sold by Akzo Nobel AB.
40 μl of the prepared dilutions were added to the 96-well plate containing antibiotic gradient to reach the final silver concentration of ¼×MICAgSol (silver) (specific for the microorganism used) (Table 5).
The prepared plate was incubated in 37° C. incubator without shaking in the dark for 16-20 h and the optical density (OD620) of each well was measured in plate reader Multiscan FC (Thermo Fisher).

## CO[C@H]1/C=C/O[C@@]2(C)Oc3c(C)c(O)c4c(O)c(c(/C=N/N5CCN(C)CC5)c(O)c4c3C2=O)NC(=O)/C(C)=C\C=C\[C@H](C)[C@H](O)[C@@H](C)[C@@H](O)[C@@H](C)[C@H](OC(C)=O)[C@@H]1C [Rifampicin]
  synergetic effect of antibiotic in combination with silver: synergetic effect was evident
